Measured values taken from publication doi:10.1101/2023.05.25.542299.
These are yes or no findings as the source states them, for the method shown. Some results given as binding are weak or reduced against the parent protein; the word gives no strength.

By UniProt entry, the sequences of proteins in these tests, tags left out. Where a name states a change or a piece, a line headed by the entry shows the natural chain unless it says otherwise. Chains listed by the source or under a name are the forms on record and can include a tag or linker.
FLAG-tagged full-length OPTN-IVD-NEMO expressed in 293T NEMO knockout cells (Q9Y6K9, form named): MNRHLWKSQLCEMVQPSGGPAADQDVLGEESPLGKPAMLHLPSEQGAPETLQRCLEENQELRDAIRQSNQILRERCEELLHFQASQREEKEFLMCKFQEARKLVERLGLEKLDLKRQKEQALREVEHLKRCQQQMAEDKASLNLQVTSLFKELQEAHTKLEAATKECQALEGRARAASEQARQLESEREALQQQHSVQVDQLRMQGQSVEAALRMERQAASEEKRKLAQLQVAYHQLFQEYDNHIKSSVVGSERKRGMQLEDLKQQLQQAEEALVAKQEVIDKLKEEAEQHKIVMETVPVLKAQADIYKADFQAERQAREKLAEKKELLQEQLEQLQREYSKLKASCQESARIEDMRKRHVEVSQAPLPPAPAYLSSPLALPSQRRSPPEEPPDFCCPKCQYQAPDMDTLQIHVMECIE

Target: FLAG-tagged full-length OPTN-IVD-NEMO expressed in 293T NEMO knockout cells (human) (UniProt Q9Y6K9)
Assay: non-reducing SDS-PAGE of disulfide-bonded dimers; lysates of transfected 293T NEMO KO cells in non-ionic detergent buffer; SDS sample buffer without β-mercaptoethanol, not boiled; anti-NEMO Western blot

Substance: FLAG-tagged full-length OPTN-IVD-NEMO expressed in 293T NEMO knockout cells (from UniProt Q9Y6K9 1-419)
- binding: binds
